Source: PubChem BioAssay AID2685 (National Center for Advancing Translational Sciences (NCATS), 2010)
The other results are listed elsewhere or left out. Shown are side measurements of this screen, not its main read-out; they come without a call. The list favours compounds with an active or inconclusive main result. The note in brackets gives the kind of curve behind each potency; many fits are weak.

Assay: qHTS Assay for Lipid Storage Modulators in Drosophila S3 Cells;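 for cell number change: cells counted by Cell Tracker Red CMTPX staining in the red channel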
Details: BODIPY lipid droplet fluorescence, 18-24 h; for cell number change: measured here: cell count max response, cells fed with added oleic acid
Procedure, shortened: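 Drosophila S3 cells loaded with oleic acid (400 uM, as added) and compounds at several concentrations; lipid droplets imaged by 488-nm laser-scanning cytometry, 500–530 nm intensity and object ratio to cell channel. Percent activity normalized to 20 uM Triacsin C.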

[1] = measured here: lipid fluorescence (Fed channel) AC50, cells fed with added oleic acid
[2] = measured here: cell number channel AC50, cells fed with added oleic acid

Structure (SMILES)	cell number change [%]	AC50 [1]	AC50 [2]
COC(=O)c1ccc(-n2c(C)cc(C(=O)CSc3ccc(NC(C)=O)cc3)c2C)cc1	93.5	1.84 µM [falling, partial curve, poor fit]	
CC1(C)Cc2c(sc(NC(=O)C(=O)N3CCCCC3)c2C(N)=O)CO1	-18.6	29.1 µM [rising, single point]	
Cc1ccc(C(=O)COC(=O)CCc2nc3ccccc3[nH]c2=O)cc1C	-9.66		
O=C(Nc1cccc(C(F)(F)F)c1)c1cc2c(=O)c3ccccc3oc2nc1C(F)(F)F	-24.4	8.2 µM [falling, partial curve]	
Cc1cc(=O)oc2cc(OC(C)C(=O)NCC3CCC(C(=O)O)CC3)c(Cl)cc12 (stereo not drawn)	-18.5	0.146 µM [rising, full curve, poor fit]	
COc1cc2nc(Cl)nc(NCCO)c2cc1OC	35.9	20.6 µM [rising, partial curve]	20.6 µM [rising, single point]
N#CCNC1CC(=O)N(c2ccccc2)C1=O (stereo not drawn)	17.9	29.1 µM [rising, single point]	
COc1ccc(S(=O)(=O)NCc2ccc(C(=O)N3CCc4ccccc4C3)cc2)cc1	13.4	16.4 µM [rising, partial curve]	
CC(=O)NCCNC(=O)C1CCC(CNc2nc(=S)[nH]c3ccccc23)CC1 (stereo not drawn)	-12.6		
CCOc1ccccc1NC(=O)Cn1nc(-c2ccco2)ccc1=O	-23.7		
CC(=O)Oc1cc2c(cc1Cl)C(c1cccs1)CC1(CC(C)(C)NC(=S)N1)O2 (stereo not drawn)	-0.482	4.11 µM [falling, full curve, poor fit]	
COc1ccc2c(c1)C=C(CN1CCN(C3CCCC3)C(CCO)C1)CO2 (stereo not drawn)	-31.2	29.1 µM [falling, single point]	29.1 µM [falling, single point]
CCCCn1c(N)c(N(CC(C)C)C(=O)COC(=O)C2(c3ccccc3)CC2)c(=O)[nH]c1=O	1.97		
O=C(CCS(=O)(=O)c1ccc(Br)cc1)NCCC1=CCCCC1	-15	0.731 µM [rising, single point]	
CCCC(=O)Nc1nn(C)c2nc3c(C)cccc3cc12	-15	0.058 µM [rising, full curve, poor fit]	
CCn1cc(Cl)c(C(=O)Nc2ccc3c(c2)OCCO3)n1			1.64 µM [rising, single point]
COc1ccccc1C(=O)Nc1ccnn1C1CCN(C(C)CSC)CC1 (stereo not drawn)	-21.3	29.1 µM [falling, single point]	
CC(C)N(C)S(=O)(=O)c1ccc(NC(=O)CSC(=S)N2CCCC2)cc1	-3.24		0.00461 µM [falling, full curve, poor fit]
NC(N)=Nc1cc2ccccc2c2ccccc12	-18.9		0.461 µM [falling, single point]
CCN(CC)C(=O)N1CCN(C(=O)N2CCOCC2)CC1	10.1	0.00517 µM [falling, full curve, poor fit]	
Cc1ccc(-c2nnc(-c3cc(C)on3)o2)cc1	-0.408	0.291 µM [falling, full curve, poor fit]	

Pulled one by one from the entries so far (two):
Structure (SMILES)	cell number change [%]	AC50 [1]	AC50 [2]
CCCCn1c(N)c(N(CC(C)C)C(=O)COC(=O)C2(c3ccccc3)CC2)c(=O)[nH]c1=O	1.97		
CCCC(=O)Nc1nn(C)c2nc3c(C)cccc3cc12	-15	0.058 µM [rising, full curve, poor fit]	

The results go on:

Structure (SMILES)	cell number change [%]	AC50 [1]	AC50 [2]
Cc1ccc(OCc2cc(C(=O)NC3CCOC3)no2)cc1C (stereo not drawn)	-9.54	13 µM [rising, partial curve]	
O=C(Cc1ccccc1)NNC(=O)C1CCCC1	-93.4		32.6 µM [falling, partial curve, poor fit]
CCn1cc(CCC(=O)NCc2cccc(OC)c2OC)c2ccccc21	14.1		0.651 µM [falling, single point]
Cn1ccnc1C(=O)c1cccc(Br)c1		0.58 µM [rising, single point]	
C=CCN(c1ccc(F)cc1)S(=O)(=O)c1cc(C(=O)OCC(=O)N(C)C2CCS(=O)(=O)C2)ccc1Cl (stereo not drawn)	-17.4	29.1 µM [falling, single point]	
O=C(CNC(=O)c1cccc(Br)c1)N/N=C/c1ccc[nH]1		0.58 µM [rising, single point]	0.58 µM [rising, single point]
CN(C)CCCNCCCCNC(=O)/C=N/O	-6.19	29.1 µM [falling, single point]	
C/C(=C\C(=O)c1c(O)cc(C)oc1=O)N(C)C	25.1	6.51 µM [rising, single point]	
O=S(=O)(Nc1ccc2c(c1)OCCO2)c1ccc(F)c(F)c1	20.5	23.1 µM [rising, single point]	
O=C(OCC(=O)N1CCN(Cc2ccccc2)CC1)c1ccc(Cl)cc1	29.7	2.59 µM [rising, full curve]	4.11 µM [rising, full curve, poor fit]
CNC(=S)NNC(=O)Cc1ccccc1	-37.5		29.1 µM [falling, partial curve, poor fit]
O=C(Cn1cc(C(F)(F)F)ccc1=O)Nc1ccc(N2CCOCC2)cc1	-28.4	0.0651 µM [falling, full curve, poor fit]	
Cc1c(Br)c([N+](=O)[O-])nn1CC(=O)NCc1cccnc1	-67	6.51 µM [falling, single point]	32.6 µM [falling, partial curve, poor fit]
O=C(CSc1n[nH]c(=O)n1C1CC1)Nc1ccc(F)c([N+](=O)[O-])c1	79.2	18.4 µM [rising, partial curve]	20.6 µM [rising, partial curve]
CC(C)(C)N=C1NN=C(c2ccc(Cl)cc2)CS1	-30.5		
Cc1cccc(NC(=O)c2cccc(N3C(=O)C4C5C=CC(C6CC56)C4C3=O)c2)c1 (stereo not drawn)		6.51 µM [falling, single point]	
O=C(CCl)NNC(=O)c1c(O)c2ccccc2[nH]c1=O	-39.4	18.4 µM [falling, partial curve, poor fit]	
Cc1cc(C)n(C(=O)CNC(=O)c2ccccc2F)n1	-17.6		
CC(=O)C1=C(C)NC(SCC(=O)Nc2nc3ccccc3s2)=C(C#N)C1c1ccc(Cl)cc1 (stereo not drawn)	-15.6	29.1 µM [falling, single point]	
COCc1c(C(=O)N/N=C(/C)c2ccc(OCc3ccccc3)cc2)nnn1-c1nonc1N	7.66	6.51 µM [falling, partial curve, poor fit]	
COc1ccc(CSc2nc(C)cc(=O)[nH]2)cc1	0.977		

Structure (SMILES)	cell number change [%]	AC50 [1]	AC50 [2]
O=C(Oc1ccc(-c2nnco2)cc1)N1CCCCC1	-0.661		
O=C(OCC(=O)N1CCN(c2ccccc2)CC1)c1ccc2ccccc2n1	122	0.291 µM [rising, full curve]	29.1 µM [rising, single point]
O=c1c(-c2ccccc2)nc(-c2ccccc2)cn1O	-21.3	29.1 µM [falling, single point]	
CCOC(=O)Cc1nnc(NC(=O)CSc2nc3ccccc3[nH]2)s1	-15	29.1 µM [falling, single point]	
CCc1ccc(NC(=O)CSc2nnc(Cc3cccn3C)n2-c2ccc(F)cc2)cc1	14		
COc1ccc(N(CC(=O)Nc2cc(OC)c(OC)cc2C(=O)O)S(=O)(=O)c2c(C)noc2C)cc1	-6.6	3.26 µM [falling, single point]	
O=C(c1c(Cl)cccc1Cl)N1CCCCCC1			0.651 µM [falling, full curve, poor fit]
Cc1c(C(=O)N(C)Cc2ccc(OC(F)F)cc2)oc2ccccc12	-5.13	6.51 µM [rising, single point]	
NC(=O)C1CCN(c2ncccc2[N+](=O)[O-])CC1	-38.7		0.291 µM [falling, full curve, poor fit]
COc1cc(C(=O)n2nc(C)cc2C)cc(OC)c1OC	33.6	4.11 µM [rising, full curve]	4.61 µM [rising, full curve, poor fit]
CC(=O)c1ccc(N2CCN(CC(=O)NC(=O)NCc3ccccc3)CC2)cc1	-8.57		
COc1ccc(-c2nn(-c3ccccc3)cc2/C=C/C(=O)N2CCN(c3ccccn3)CC2)cc1	-50.1	18.4 µM [falling, partial curve, poor fit]	25.9 µM [falling, partial curve]
CN1CCN(C(=O)C2C3C=CC(C3)C2C(=O)O)CC1 (stereo not drawn)	12.5		
COc1ccccc1C(=O)NC1CCSc2ccccc21 (stereo not drawn)	15.8	4.61 µM [rising, partial curve]	
CCOC(=O)C1CCN(C2CCN(C(=O)c3oc4c(C)c(C)ccc4c3C)CC2)CC1	-25.1	29.1 µM [falling, single point]	
COc1ccc([N+](=O)[O-])cc1NC(=O)CCCOc1ccccc1	5.94	2.91 µM [rising, single point]	
CCN1CCN(c2nc(N)c([N+](=O)[O-])c(Nc3ccc(C)c(C)c3)n2)CC1	-12.5		0.326 µM [falling, full curve, poor fit]
CCCSc1nc(C)c(CC(=O)OCC)c(=O)[nH]1	-1.21		
Cc1cc(C(F)(F)F)c2c(N)c(C(=O)NC3CC3)sc2n1		15.8 µM [falling, partial curve, poor fit]	
CN1CCN(CC2(O)CCN(S(=O)(=O)c3ccc(Cl)cc3)CC2)CC1	-30.5	10.3 µM [falling, partial curve]	
COc1cccc(N=Nc2c(N)[nH]n3c(=O)cc(-c4ccccc4)nc23)c1	-11.8	0.103 µM [falling, full curve, poor fit]	0.164 µM [falling, full curve, poor fit]
